Reference: patent US20250002866A1, “CELL CULTURE PLATFORMS, METHODS AND USES THEREOF” (ACADEMIA SINICA, priority 2021, published 2025)
Some of these results come from one statement about several compounds together.

Tested on: CTC spheroid derived from blood samples of patient A
Test: Ex vivo drug assay on CTC spheroids of patient A
Type: cell-based, human
Details: CTC spheroids of patient A under drug treatment
Method: FIGS. 3A-F show the in vitro drug test results of CTC-derived spheroids and clinical-pathological results of the clinical patient. (A) The drug cytotoxicity assay results on the patient-derived CTC-originated spheroid of patient A. Six chemotherapeutic drugs were tested in this assay include oxaliplatin, docetaxel, doxorubicin, irinotecan, mitomycin-C, and 5-FU. (B and D) The image of the morphology of CTC-derived spheroids after drug panel treatment at day 3. Scale bar=20 μm. (C and E) The normalized viability of CTC-derived spheroids with indicated drug panel after 3 days of treatment. (F) The contrast-enhanced CT images before and after cisplatin/gemcitabine treatment of patient B.
In order to validate the ex vivo drug assay results, we tested single or combination therapeutic agents in CTC cultures derived from blood samples of patients. […] A designed ex vivo drug assay with both used and potential candidate drug panel including oxaliplatin, docetaxel, 5-FU, doxorubicin, mitomycin-c, and irinotecan was accomplished with time-dependent and dose-dependent manner (FIG. 3A). With regard to the cell morphology, the diameter of CTC spheroid derived from blood samples of patient A was about 30˜40 μm with an intact spheroid morphology in untreated mock group. […] The results highly match with the clinical treatment outcomes in the treatment resistance on the clinical used drugs. […]

Compound	spheroid viability
O=c1[nH]cc(F)c(=O)[nH]1 [5-FU, fluorouracil]	over 50%
CC(=O)O[C@@]12CO[C@@H]1C[C@H](O)[C@@]1(C)C(=O)[C@H](O)C3=C(C)[C@@H](OC(=O)[C@H](O)[C@@H](NC(=O)OC(C)(C)C)c4ccccc4)C[C@@](O)([C@@H](OC(=O)c4ccccc4)[C@H]21)C3(C)C [docetaxel]	over 50%
